In paper PMC12502315:
These are yes or no findings as the source states them, for the method shown. In cells and extracts the contact can be indirect. Some results given as binding are weak or reduced against the parent protein; the word gives no strength.

Sequences of proteins named here, by UniProt entry; tags and fusion partners are left off. Residues count along the entry.
UniProt Q9QUK6, residues 26-835: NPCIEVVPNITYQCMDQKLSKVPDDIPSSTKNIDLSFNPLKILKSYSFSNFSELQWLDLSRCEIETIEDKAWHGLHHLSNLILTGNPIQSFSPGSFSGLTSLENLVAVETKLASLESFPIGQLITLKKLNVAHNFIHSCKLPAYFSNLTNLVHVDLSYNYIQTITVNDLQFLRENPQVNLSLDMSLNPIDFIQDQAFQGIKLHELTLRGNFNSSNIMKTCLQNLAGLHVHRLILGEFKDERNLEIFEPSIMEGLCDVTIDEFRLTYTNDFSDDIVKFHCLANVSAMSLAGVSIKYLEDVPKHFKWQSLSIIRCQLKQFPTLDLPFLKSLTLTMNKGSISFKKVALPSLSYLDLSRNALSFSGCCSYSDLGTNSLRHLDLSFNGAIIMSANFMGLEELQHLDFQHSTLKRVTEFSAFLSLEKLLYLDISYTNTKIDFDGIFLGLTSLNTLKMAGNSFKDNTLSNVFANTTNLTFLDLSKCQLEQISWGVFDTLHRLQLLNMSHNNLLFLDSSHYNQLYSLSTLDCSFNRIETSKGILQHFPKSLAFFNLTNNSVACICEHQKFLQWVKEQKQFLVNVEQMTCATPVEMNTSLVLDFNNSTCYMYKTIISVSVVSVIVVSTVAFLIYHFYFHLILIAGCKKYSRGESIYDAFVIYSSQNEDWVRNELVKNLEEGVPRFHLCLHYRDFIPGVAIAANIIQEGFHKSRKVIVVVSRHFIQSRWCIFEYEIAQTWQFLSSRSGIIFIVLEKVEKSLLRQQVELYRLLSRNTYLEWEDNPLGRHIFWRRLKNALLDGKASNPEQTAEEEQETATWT

Biological target: T1, Triggering receptor expressed on myeloid cells 2 (mouse (endogenous in RAW 264.7)) (UniProt Q99NH8)
T1 sequence: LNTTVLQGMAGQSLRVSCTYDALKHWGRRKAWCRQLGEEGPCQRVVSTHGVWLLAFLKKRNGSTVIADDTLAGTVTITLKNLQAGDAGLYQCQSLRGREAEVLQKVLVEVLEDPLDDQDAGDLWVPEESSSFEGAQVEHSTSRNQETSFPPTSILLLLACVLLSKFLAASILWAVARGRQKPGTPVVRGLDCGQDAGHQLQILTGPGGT
Test: co-IP; endogenous; RAW 264.7 cell lysate (20 mM Tris pH 7.5, 150 mM NaCl, 1% Triton X-100) immunoprecipitated with Trem2 antibody or isotype control overnight, Protein A/G agarose beads 4 C 2 h; western blot for TLR4; cells with or without TgAg (5 ug/ml, 24 h)

binding: binds
Substance: Toll-like receptor 4 (from UniProt Q9QUK6 26-835)
